These results are taken from doi:10.1101/2024.09.10.612038.

The target in the experiment is CNOT1^mTID (human), A5YKK6. The experiment can be described thus: proximity labelling. Conditions: remark: other sources report otherwise.

Results are given in words; binding and its absence hold for the method and conditions named. Binding seen in cells or lysates may run through a third protein. A yes stands for co-enrichment or nearness to the bait. Other partners may have been found.

B1: CNOT4, O95628 1-575 (protein)
chain: MSRSPDAKEDPVECPLCMEPLEIDDINFFPCTCGYQICRFCWHRIRTDENGLCPACRKPYPEDPAVYKPLSQEELQRIKNEKKQKQNERKQKISENRKHLASVRVVQKNLVFVVGLSQRLADPEVLKRPEYFGKFGKIHKVVINNSTSYAGSQGPSASAYVTYIRSEDALRAIQCVNNVVVDGRTLKASLGTTKYCSYFLKNMQCPKPDCMYLHELGDEAASFTKEEMQAGKHQEYEQKLLQELYKLNPNFLQLSTGSVDKNKNKVTPLQRYDTPIDKPSDSLSIGNGDNSQQISNSDTPSPPPGLSKSNPVIPISSSNHSARSPFEGAVTESQSLFSDNFRHPNPIPSGLPPFPSSPQTSSDWPTAPEPQSLFTSETIPVSSSTDWQAAFGFGSSKQPEDDLGFDPFDVTRKALADLIEKELSVQDQPSLSPTSLQNSSSHTTTAKGPGSGFLHPAAATNANSLNSTFSVLPQRFPQFQQHRAVYNSFSFPGQAARYPWMAFPRNSIMHLNHTANPTSNSNFLDLNLPPQHNTGLGGIPVAGEEEVKVSTMPLSTSSHSLQQGQQPTSLHTTVA
In the case of B1, the binding entry is reported as “binds”.
